Assay results as given in patent US20080274971A1.
These are yes or no findings as the source states them, for the method shown. Some entries that bind do so weakly or less than the wild type. Sequences can lack the tags named with a protein.

Target: recombinant Acrp30 (His-tagged, expressed from pTRC His B in E. coli) (mouse) (UniProt Q60994)
Assay: SDS-PAGE of purified recombinant protein (self-association)

binding: binds
B1: recombinant Acrp30 (His-tagged, expressed from pTRC His B in E. coli) (protein, mouse, UniProt Q60994 15-247, looked up, not shown: small tags and cut ends)
chain: SHAEDDVTTTEELAPALVPPPKGTCAGWMAGIPGHPGHNGTPGRDGRDGTPGEKGEKGDAGLLGPKGETGDVGMTGAEGPRGFPGTPGRKGEPGEAAYVYRSAFSVGLETRVTVPNVPIRFTKIFYNQQNHYDGSTGKFYCNIPGLYYFSYHITVYMKDVKVSLFKKDKAVLFTYDQYQEKNVDQASGSVLLHLEVGDQVWLQVYGDGDHNGLYADNVNDSTFTGFLLYHDTN
